# Some results were stated once for a whole list of compounds, not compound by compound.
# Sequences of proteins named here, by UniProt entry; tags and fusion partners are left off. Residues count along the entry.
# UniProt P16056, 25-1379: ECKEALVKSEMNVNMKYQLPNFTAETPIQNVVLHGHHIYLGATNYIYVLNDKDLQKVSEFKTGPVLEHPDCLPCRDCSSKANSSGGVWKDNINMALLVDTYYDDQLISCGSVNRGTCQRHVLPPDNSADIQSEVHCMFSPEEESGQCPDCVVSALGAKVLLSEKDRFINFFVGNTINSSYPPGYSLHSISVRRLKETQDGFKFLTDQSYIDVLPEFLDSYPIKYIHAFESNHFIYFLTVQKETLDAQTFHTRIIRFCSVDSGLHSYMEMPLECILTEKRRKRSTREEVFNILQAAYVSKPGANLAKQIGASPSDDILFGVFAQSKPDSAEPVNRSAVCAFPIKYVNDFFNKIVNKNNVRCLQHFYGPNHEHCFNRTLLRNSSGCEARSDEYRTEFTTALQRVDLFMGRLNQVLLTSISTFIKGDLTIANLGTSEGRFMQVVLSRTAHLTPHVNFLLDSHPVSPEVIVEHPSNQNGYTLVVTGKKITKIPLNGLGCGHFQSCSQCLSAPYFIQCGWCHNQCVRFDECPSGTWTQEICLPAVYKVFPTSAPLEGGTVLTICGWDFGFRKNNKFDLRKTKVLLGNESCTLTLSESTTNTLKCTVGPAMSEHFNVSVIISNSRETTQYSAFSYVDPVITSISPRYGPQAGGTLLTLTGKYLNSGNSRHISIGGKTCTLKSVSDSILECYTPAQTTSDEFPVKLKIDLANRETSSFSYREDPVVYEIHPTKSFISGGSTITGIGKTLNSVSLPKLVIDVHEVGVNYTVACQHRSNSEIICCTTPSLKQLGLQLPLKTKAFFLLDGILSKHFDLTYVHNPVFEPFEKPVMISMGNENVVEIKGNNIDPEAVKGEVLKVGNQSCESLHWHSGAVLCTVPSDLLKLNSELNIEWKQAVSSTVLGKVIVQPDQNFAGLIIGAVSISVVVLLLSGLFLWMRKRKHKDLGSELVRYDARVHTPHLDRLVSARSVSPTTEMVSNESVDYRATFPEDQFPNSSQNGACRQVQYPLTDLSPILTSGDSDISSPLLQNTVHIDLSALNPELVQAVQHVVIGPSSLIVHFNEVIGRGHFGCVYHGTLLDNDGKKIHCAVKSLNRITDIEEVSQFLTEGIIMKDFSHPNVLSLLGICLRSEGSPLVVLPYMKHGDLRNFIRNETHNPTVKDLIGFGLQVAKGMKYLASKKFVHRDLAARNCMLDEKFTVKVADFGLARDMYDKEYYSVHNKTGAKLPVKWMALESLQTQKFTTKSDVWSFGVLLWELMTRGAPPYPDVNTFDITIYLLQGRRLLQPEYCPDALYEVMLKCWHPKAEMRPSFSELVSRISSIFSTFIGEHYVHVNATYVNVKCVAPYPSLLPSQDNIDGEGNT
# Target: c-Met (HGF-stimulated autophosphorylation) in CT26 cells (Mus musculus, UniProt P16056)
# Test: c-Met cell-based autophosphorylation assay in CT26 cells
# Settings: read-out: IC50, c-Met autophosphorylation in CT26 cells, HGF 250 ng/mL, IGEN readout
compound,measurement,value
"COc1cc2c(Oc3ccc(-c4cnc(Cc5ccc(F)cc5)n(C)c4=O)cc3F)ccnc2cc1OCCCN1CCOCC1 [Example 30, 5-(3-fluoro-4-(6-methoxy-7-((3-(4-morpholinyl)propoxy)-4-quinolinyl)oxy)phenyl)-2-((4-fluorophenyl)methyl)-3-methyl-4(3H)-pyrimidinone]",IC50,< 1000 nM
